This note sets out measurements from the supplement of paper PMC10849652.

Amino acid sequences for entries named in this document (tags omitted). A change or cut given only in a name is not applied to a line headed by its entry.
UniProt Q96KP1: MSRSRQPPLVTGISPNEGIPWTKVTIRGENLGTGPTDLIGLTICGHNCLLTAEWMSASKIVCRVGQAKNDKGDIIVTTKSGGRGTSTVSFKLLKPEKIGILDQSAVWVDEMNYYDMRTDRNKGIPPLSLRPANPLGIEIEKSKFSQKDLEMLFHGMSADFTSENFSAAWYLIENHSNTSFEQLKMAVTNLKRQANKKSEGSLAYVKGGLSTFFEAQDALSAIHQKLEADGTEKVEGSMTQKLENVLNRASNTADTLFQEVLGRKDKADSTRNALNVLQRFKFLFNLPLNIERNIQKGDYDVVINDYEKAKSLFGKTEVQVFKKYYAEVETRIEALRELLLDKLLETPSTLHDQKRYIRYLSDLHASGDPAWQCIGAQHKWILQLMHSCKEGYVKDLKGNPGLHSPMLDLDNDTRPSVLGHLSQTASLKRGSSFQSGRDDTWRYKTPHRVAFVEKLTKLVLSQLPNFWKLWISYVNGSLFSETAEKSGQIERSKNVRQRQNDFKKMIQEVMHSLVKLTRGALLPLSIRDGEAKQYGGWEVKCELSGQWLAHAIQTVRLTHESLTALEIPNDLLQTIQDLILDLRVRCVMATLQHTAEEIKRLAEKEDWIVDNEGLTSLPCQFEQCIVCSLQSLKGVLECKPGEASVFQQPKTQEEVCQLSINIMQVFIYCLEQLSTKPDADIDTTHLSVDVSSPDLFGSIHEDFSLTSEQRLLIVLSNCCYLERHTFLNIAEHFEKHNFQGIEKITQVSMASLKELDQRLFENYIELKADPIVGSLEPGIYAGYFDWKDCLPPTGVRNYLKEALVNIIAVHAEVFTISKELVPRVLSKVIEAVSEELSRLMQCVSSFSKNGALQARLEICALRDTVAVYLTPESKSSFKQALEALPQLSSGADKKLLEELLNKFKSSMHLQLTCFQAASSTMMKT
UniProt Q15910, whole entry, looked up: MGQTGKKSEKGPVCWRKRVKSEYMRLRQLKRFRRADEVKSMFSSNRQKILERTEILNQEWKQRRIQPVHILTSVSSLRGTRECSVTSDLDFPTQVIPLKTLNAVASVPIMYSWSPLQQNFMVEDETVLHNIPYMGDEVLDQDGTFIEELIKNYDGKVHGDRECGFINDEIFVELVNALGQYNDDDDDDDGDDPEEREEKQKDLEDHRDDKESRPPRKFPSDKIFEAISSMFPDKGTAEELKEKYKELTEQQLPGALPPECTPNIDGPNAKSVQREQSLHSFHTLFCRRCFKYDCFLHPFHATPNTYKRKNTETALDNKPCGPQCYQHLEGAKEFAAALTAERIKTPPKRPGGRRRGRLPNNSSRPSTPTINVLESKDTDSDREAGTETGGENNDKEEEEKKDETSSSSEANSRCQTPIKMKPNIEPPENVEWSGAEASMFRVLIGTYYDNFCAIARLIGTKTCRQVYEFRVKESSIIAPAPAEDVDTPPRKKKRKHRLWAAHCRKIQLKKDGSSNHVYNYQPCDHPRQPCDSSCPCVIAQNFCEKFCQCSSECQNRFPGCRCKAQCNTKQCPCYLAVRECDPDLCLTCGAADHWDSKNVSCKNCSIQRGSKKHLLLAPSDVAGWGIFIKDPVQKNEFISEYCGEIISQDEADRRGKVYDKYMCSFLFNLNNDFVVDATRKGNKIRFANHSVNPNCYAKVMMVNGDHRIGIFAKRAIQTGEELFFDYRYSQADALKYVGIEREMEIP
UniProt Q96A65: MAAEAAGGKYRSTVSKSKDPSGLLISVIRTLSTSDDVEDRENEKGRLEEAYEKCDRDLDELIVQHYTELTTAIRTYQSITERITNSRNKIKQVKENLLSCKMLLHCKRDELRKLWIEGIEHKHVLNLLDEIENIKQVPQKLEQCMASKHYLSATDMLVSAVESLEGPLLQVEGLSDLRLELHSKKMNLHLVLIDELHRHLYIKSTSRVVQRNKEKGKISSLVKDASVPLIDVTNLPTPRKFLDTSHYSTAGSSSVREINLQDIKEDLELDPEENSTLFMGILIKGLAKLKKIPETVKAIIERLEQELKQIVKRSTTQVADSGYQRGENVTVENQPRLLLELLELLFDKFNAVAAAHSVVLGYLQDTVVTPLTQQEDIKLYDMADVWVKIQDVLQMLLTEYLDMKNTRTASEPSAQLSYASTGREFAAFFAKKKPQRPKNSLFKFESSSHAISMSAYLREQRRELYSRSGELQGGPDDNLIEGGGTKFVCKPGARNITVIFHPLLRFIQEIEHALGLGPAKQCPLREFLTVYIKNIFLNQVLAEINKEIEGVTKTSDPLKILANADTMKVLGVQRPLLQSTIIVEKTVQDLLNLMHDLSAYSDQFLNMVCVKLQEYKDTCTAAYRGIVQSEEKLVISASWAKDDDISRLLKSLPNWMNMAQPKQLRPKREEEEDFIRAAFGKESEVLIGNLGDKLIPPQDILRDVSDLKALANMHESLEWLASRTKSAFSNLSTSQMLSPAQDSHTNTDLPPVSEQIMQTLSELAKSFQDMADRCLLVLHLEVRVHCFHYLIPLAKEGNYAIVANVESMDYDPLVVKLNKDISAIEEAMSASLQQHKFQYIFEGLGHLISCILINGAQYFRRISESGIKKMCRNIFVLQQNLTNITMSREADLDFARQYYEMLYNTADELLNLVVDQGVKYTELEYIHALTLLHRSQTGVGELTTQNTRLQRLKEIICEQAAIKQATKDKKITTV
UniProt P10768: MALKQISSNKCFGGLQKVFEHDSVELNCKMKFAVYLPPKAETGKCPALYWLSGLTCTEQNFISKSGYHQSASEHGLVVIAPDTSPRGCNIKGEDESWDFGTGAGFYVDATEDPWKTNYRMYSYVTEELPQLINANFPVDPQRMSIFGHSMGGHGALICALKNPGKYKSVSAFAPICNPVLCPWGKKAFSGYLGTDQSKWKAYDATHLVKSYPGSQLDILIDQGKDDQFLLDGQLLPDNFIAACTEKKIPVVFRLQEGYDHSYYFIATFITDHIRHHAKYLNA
UniProt O60645: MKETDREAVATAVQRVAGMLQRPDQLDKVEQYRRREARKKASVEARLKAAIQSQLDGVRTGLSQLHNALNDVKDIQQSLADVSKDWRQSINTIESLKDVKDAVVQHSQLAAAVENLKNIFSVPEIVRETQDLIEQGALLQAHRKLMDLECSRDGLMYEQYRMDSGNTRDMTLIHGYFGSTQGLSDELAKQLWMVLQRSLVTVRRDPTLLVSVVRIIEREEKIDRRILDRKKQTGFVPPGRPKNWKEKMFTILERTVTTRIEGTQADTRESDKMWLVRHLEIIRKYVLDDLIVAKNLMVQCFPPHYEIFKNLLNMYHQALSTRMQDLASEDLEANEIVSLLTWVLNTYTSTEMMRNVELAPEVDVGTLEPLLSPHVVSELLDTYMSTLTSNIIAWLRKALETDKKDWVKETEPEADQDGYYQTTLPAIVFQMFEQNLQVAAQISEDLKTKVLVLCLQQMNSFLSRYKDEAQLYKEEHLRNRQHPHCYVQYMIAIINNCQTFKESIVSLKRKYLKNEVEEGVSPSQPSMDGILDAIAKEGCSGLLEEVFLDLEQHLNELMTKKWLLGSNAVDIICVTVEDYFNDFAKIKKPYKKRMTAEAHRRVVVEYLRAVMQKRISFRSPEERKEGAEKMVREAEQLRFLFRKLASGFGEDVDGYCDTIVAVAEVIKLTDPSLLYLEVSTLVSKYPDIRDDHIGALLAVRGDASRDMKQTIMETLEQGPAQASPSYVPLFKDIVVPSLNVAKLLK
UniProt Q99504: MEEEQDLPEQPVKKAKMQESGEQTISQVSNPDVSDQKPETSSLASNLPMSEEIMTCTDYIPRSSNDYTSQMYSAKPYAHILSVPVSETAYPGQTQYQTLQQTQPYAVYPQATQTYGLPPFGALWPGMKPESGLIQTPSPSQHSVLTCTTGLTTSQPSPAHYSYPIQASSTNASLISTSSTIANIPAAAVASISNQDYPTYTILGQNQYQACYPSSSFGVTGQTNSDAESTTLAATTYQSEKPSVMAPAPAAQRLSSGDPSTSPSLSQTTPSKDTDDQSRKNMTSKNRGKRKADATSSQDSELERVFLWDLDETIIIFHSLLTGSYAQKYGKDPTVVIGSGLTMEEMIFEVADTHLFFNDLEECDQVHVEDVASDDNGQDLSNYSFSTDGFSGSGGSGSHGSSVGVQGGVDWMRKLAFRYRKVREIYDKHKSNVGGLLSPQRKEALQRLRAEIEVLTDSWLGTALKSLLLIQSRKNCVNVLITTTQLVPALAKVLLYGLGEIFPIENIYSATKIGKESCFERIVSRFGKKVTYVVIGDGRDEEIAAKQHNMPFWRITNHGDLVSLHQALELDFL
UniProt Q9BSJ8: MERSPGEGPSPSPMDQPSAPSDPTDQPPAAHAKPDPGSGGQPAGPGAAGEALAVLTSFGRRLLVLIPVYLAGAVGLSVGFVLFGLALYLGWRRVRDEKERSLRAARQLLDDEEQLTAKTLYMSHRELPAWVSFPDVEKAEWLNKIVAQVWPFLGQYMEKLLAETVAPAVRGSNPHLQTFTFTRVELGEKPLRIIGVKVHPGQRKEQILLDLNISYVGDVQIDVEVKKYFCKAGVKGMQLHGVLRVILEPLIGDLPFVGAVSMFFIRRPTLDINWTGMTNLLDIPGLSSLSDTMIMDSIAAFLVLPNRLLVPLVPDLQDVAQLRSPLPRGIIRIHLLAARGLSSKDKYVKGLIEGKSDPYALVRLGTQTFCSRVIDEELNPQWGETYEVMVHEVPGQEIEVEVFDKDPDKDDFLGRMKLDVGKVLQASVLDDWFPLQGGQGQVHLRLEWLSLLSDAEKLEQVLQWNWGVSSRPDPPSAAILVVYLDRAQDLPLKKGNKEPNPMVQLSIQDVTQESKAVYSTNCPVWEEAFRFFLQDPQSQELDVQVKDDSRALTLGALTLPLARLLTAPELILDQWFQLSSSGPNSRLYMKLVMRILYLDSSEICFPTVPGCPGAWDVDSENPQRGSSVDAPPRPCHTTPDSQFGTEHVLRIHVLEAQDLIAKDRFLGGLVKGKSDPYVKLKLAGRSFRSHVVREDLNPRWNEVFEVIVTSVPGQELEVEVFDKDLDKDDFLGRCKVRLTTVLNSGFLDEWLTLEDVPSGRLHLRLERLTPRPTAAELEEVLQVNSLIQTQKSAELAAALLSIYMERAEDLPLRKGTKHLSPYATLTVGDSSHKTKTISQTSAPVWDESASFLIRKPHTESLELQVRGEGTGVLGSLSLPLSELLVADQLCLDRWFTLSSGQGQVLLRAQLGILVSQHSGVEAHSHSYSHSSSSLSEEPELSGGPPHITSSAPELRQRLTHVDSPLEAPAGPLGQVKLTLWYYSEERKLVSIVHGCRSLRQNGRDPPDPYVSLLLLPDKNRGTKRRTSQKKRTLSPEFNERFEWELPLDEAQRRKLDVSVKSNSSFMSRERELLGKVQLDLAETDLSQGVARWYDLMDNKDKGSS
UniProt Q6P587: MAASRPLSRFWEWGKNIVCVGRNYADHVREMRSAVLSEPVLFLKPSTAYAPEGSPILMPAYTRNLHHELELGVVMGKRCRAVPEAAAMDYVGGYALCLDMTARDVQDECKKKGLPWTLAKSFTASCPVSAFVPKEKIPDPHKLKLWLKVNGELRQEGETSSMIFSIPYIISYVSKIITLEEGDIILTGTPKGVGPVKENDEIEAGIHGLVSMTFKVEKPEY
UniProt Q9UPT5: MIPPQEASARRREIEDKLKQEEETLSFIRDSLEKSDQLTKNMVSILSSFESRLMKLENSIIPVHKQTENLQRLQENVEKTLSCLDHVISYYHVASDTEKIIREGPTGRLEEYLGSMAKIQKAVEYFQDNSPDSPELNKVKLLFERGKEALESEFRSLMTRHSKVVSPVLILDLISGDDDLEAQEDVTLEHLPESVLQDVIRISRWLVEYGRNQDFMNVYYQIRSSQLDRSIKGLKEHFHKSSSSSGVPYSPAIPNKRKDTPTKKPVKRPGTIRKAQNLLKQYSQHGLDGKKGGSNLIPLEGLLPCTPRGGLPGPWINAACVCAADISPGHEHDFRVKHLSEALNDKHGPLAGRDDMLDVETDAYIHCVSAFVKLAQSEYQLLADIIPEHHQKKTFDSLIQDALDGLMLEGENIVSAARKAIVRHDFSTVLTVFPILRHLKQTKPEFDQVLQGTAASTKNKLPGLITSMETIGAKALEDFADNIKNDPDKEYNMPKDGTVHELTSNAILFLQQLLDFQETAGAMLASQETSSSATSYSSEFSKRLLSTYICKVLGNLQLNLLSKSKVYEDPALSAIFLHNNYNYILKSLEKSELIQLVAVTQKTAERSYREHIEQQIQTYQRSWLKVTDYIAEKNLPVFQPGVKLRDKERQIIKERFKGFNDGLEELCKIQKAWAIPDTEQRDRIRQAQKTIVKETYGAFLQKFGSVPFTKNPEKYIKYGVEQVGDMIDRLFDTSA

The list shows a part of the results.

Compound in the first assay: CNC(=O)C1=CC=CC=C1NC2=NC(=NC=C2Cl)NC3=C(C=C(C=C3)N4CCOCC4)OC
Kind of assay: log2 fold change, soluble protein after heating vs DMSO (PISA); higher = thermal stabilisation; K562 lysate, 10 uM; active = over 0.2 and 3.5 SD of the protein, either way, in both replicates (recomputed). The procedure, abridged:
(§1)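 Quantification was by TMTpro 16plex LC-MS/MS with equalised channel sums, applied to the supernatant after 21,000xg for 90 min. Samples were crude K562 extract at 1 mg/mL protein in PBS pH 7.4 with 1 mM MgCl2, treated with 10 μM compound for 30 min, heated for 3 min across 48°C-58°C, pooled and brought to 0.5% NP-40 at 4°C. Values are log-two fold changes in thermal stability relative to solvent controls, from duplicates.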
In the case of ETNK1 (UniProt Q9HBU6), the log2 fold change was inactive: -0.012.

FAM83A (UniProt Q86UY5): the log2 fold change is inactive: 0.061.

As for FADS3 (UniProt Q9Y5Q0), the log2 fold change is inactive: -0.047.

Turning to EXOC2 (UniProt Q96KP1), the log2 fold change is inactive: -0.012.

Take FAM120A isoform 6 (UniProt Q9NZB2): the log2 fold change was inactive: 0.017.

On to EXOSC5 (UniProt Q9NQT4), for which the log2 fold change is inactive: -0.057.

Turning to FAM162A (UniProt Q96A26), the log2 fold change was inactive: -0.036.

Take EZH2 isoform 2 (UniProt Q15910): the log2 fold change was inactive: -0.052.

Regarding EXOC4 (UniProt Q96A65), the log2 fold change was inactive: -0.053.

For the target EXOSC4 (UniProt Q9NPD3), the log2 fold change was inactive: -0.013.

As to ESS2 (UniProt Q96DF8), the log2 fold change is inactive: 0.069.

For the target EXOC6 (UniProt Q8TAG9), the log2 fold change is inactive: 0.013.

For the target FADS1, A0A0A0MR51, the log2 fold change was inactive: 0.158.

On to F5 (UniProt P12259), for which the log2 fold change was inactive: 0.049.

For FAM207A (UniProt Q9NSI2), the log2 fold change is inactive: 0.026.

With ESD (UniProt P10768), the log2 fold change was inactive: -0.014.

On to FAM122A (UniProt Q96E09), for which the log2 fold change was inactive: -0.029.

Turning to FAM114A2 (UniProt Q9NRY5), the log2 fold change is inactive: 0.

In the case of FAM136A (UniProt Q96C01), the log2 fold change was inactive: -0.004.

Turning to EXOC3 (UniProt O60645), the log2 fold change is inactive: 0.009.

For EYA3 (UniProt Q99504), the log2 fold change was inactive: -0.007.

ERVK3-1, A0A0U1RQV1: the log2 fold change was inactive: 0.029.

For the target ERLEC1 (UniProt Q96DZ1), the log2 fold change was inactive: -0.012.

For the target ESYT1 isoform 2 (UniProt Q9BSJ8), the log2 fold change was inactive: -0.011.

On to FAHD1 (UniProt Q6P587), for which the log2 fold change is inactive: 0.05.

In the case of FAM49B (UniProt Q9NUQ9), the log2 fold change was inactive: -0.01.

As to FABP5 (UniProt Q01469), the log2 fold change is inactive: -0.007.

On to FAM83D (UniProt Q9H4H8), for which the log2 fold change is inactive: 0.005.

EXTL2 (UniProt Q9UBQ6): the log2 fold change is inactive: 0.009.

With FAM118A (UniProt Q9NWS6), the log2 fold change is inactive: 0.077.

For ESYT2 (UniProt H7BXI1), the log2 fold change was inactive: -0.02.

On to ETFB (UniProt P38117), for which the log2 fold change was inactive: -0.053.

Take ERP29 (UniProt P30040): the log2 fold change was inactive: 0.006.

As for FAM50A (UniProt Q14320), the log2 fold change was inactive: 0.

With ERICH1 (UniProt Q86X53), the log2 fold change was inactive: -0.107.

Regarding FAHD2A (UniProt Q96GK7), the log2 fold change was inactive: -0.008.

As for FAM210B (UniProt Q96KR6), the log2 fold change was inactive: -0.002.

ETF1 (UniProt P62495): the log2 fold change was inactive: -0.007.

Consider EXOSC6 (UniProt Q5RKV6), for which the log2 fold change was inactive: 0.026.

In the case of EXOC7 (UniProt Q9UPT5), the log2 fold change is inactive: 0.033.

Compound in another assay: CNC(=O)c1ccc(Nc2ncc(C(F)(F)F)c(NCc3nccnc3N(C)S(C)(=O)=O)n2)cc1 [defactinib]
Described as above. The procedure, abridged: as §1
Regarding ETNK1 (UniProt Q9HBU6), the log2 fold change was inactive: -0.032.

Regarding FAM83A (UniProt Q86UY5), the log2 fold change was inactive: -0.055.

With FADS3 (UniProt Q9Y5Q0), the log2 fold change was inactive: 0.198.

In the case of EXOC2 (UniProt Q96KP1), the log2 fold change was inactive: 0.046.

As for FAM120A isoform 6 (UniProt Q9NZB2), the log2 fold change was inactive: 0.007.

Regarding EXOSC5 (UniProt Q9NQT4), the log2 fold change was inactive: 0.056.

Consider FAM162A (UniProt Q96A26), for which the log2 fold change was inactive: -0.034.

Turning to EZH2 isoform 2 (UniProt Q15910), the log2 fold change is inactive: 0.093.

Take EXOC4 (UniProt Q96A65): the log2 fold change was inactive: 0.039.

In the case of EXOSC4 (UniProt Q9NPD3), the log2 fold change is inactive: 0.017.

On to ESS2 (UniProt Q96DF8), for which the log2 fold change was inactive: 0.019.

For the target EXOC6 (UniProt Q8TAG9), the log2 fold change is inactive: 0.008.

In the case of FADS1, A0A0A0MR51, the log2 fold change was inactive: 0.084.

As to F5 (UniProt P12259), the log2 fold change is inactive: 0.038.

As to FAM207A (UniProt Q9NSI2), the log2 fold change is inactive: -0.025.

As for ESD (UniProt P10768), the log2 fold change is inactive: -0.031.

Turning to FAM122A (UniProt Q96E09), the log2 fold change was inactive: 0.166.

On to FAM114A2 (UniProt Q9NRY5), for which the log2 fold change was inactive: 0.032.

Consider FAM136A (UniProt Q96C01), for which the log2 fold change is inactive: 0.067.

Consider EXOC3 (UniProt O60645), for which the log2 fold change is inactive: 0.031.

Turning to EYA3 (UniProt Q99504), the log2 fold change was inactive: -0.002.

As for ERVK3-1, A0A0U1RQV1, the log2 fold change was inactive: 0.044.

As to ERLEC1 (UniProt Q96DZ1), the log2 fold change was inactive: -0.016.

As to ESYT1 isoform 2 (UniProt Q9BSJ8), the log2 fold change is inactive: 0.015.

In the case of FAHD1 (UniProt Q6P587), the log2 fold change is inactive: -0.066.

With FAM49B (UniProt Q9NUQ9), the log2 fold change was inactive: 0.037.

Turning to FABP5 (UniProt Q01469), the log2 fold change is inactive: -0.066.

For the target FAM83D (UniProt Q9H4H8), the log2 fold change is inactive: -0.007.

For EXTL2 (UniProt Q9UBQ6), the log2 fold change was inactive: 0.037.

On to FAM118A (UniProt Q9NWS6), for which the log2 fold change is inactive: -0.007.

With ESYT2 (UniProt H7BXI1), the log2 fold change was inactive: 0.001.

Turning to ETFB (UniProt P38117), the log2 fold change is inactive: -0.037.

With ERP29 (UniProt P30040), the log2 fold change is inactive: 0.032.

Turning to FAM50A (UniProt Q14320), the log2 fold change is inactive: -0.018.

Consider ERICH1 (UniProt Q86X53), for which the log2 fold change is inactive: 0.095.

On to FAHD2A (UniProt Q96GK7), for which the log2 fold change was inactive: -0.031.

On to FAM210B (UniProt Q96KR6), for which the log2 fold change is inactive: -0.092.

With ETF1 (UniProt P62495), the log2 fold change is inactive: -0.022.

As to EXOSC6 (UniProt Q5RKV6), the log2 fold change was inactive: -0.008.

Turning to EXOC7 (UniProt Q9UPT5), the log2 fold change was inactive: -0.018.
